Reference: the supplement of paper PMC10338343
± gives the standard deviation. Only a part is listed here, and it is no random draw. The uncertainty is large for many entries.

These sequences were tested on MILI (PIWIL2) piRISC loaded with piRNA #1 (26 nt) (assay: pre-steady-state target cleavage rate (min^-1); MIWI and MILI are mouse PIWI proteins and EfPiwi is from a freshwater sponge; tags in brackets are library labels; higher = faster piRNA-guided slicing of the target). Conditions: guide: piRNA #1 5'p-UGAGGUAGUAGGUUGUAUAGUAUCCA; auxiliary factor: 500 nM mouse GTSF1.
How it was run: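 Using HEPES–potassium acetate buffer at 33 °C, 1 nM active affinity-purified piRISC with a single synthetic guide was mixed with 0.1 nM transcribed, DNA-blocked target RNA library for 0–8 or 0–960 min, with or without 500 nM GTSF1 partner protein. Uncleaved targets were sequenced and normalised to depth and to weakly complementary targets, and three trials were pooled with k3 capped at 0.0001 min^-1. A burst-and-steady-state fit gave the pre-steady-state cleavage rate.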

Row | Sequence | pre-steady-state target cleavage rate
1 | GGAGACCUAUGAAUGACAACCUACUACCUCA | 0.00305 ± 0.0041
2 | GGAGACCUAUGAUAUCAACCUACUAACUCA | 0.00173 ± 0.0037
3 | GGAGACCUAUGAUAACAACCAACUAGCUCA | 0.00183 ± 0.0044
4 | GGAGACCUAUGAAUACUACCUACUACCUGA | 0.00114 ± 0.0053
5 | GGAGACCUAUGAUAUCCACCUACUACCUCA | 0.00138 ± 0.0056
6 | GGAGACCUAUGAUUAGUUCCUACUACCUCA | 0.0002 ± 0.013
7 | GGAGACCUAUGAUAUGUUGGUACUACCGCA | 0.000341 ± 0.019
8 | GGAGACCUAUGAUUACAACCUACUACCGUCA | 0.00492 ± 0.0022
9 | GGAGACCUAUGAUUACAACCUACUUCCACA | 0.00187 ± 0.0038
10 | GGAGACCUAUGAAUACAACCUACUUCCACA | 0.00127 ± 0.0038
11 | GGAGACCUAUGAUAACAUGCUACUACCUCA | 0.000899 ± 0.0059
12 | GGAGACCUAUGAUAUCAACCUACUACCUGCA | 0.00116 ± 0.0058
13 | GGAGUGGAUACUAUACAACCGUACUACCUCA | 0.00369 ± 0.0022
14 | GGAGACCUAUGAUAUCAACCAUACUACCUCA | 0.000131 ± 0.022
15 | GGAGACCUAUGAUAACAACCUUACUACCUCA | 0.00138 ± 0.0054
16 | GGAGACCUAUGAUAACAACCUGCUACCUCA | 0.00155 ± 0.0035
17 | GGAGACCUAUCUAUAAACCUACUACCUCA | 0.003 ± 0.0031
18 | GGAGACCUAUGAUAUCAACCUACUCACCUCA | 0.002 ± 0.0034
19 | GGAGACCUAUGAUAUGUACCACUACCUCA | 0.000202 ± 0.012
20 | GGAGACCUAUGAUAACAACCUACUACCUCU [g2:g16:cont:t1U] | 0.00588 ± 0.0024
21 | GGAGACCUAUGAUUACAACCUACUACGUGA | 0.00102 ± 0.0049
22 | GGAGUGGAUACUAUACAACCUACUUCGUCA | 0.000256 ± 0.0099
23 | GGAGACCUAUCUAUACAACCUACUCCUCA | 0.00284 ± 0.003
24 | GGAGACCUAUGAUAUGUUCCUACUACCCA | 0.000113 ± 0.019

Numbers 2 to 6 of the list above:
Row | Sequence | pre-steady-state target cleavage rate
2 | GGAGACCUAUGAUAUCAACCUACUAACUCA | 0.00173 ± 0.0037
3 | GGAGACCUAUGAUAACAACCAACUAGCUCA | 0.00183 ± 0.0044
4 | GGAGACCUAUGAAUACUACCUACUACCUGA | 0.00114 ± 0.0053
5 | GGAGACCUAUGAUAUCCACCUACUACCUCA | 0.00138 ± 0.0056
6 | GGAGACCUAUGAUUAGUUCCUACUACCUCA | 0.0002 ± 0.013
